PMC10163288
The list shows a part of the results.

B1: il2ra_site2_2erj_sap_26_mot_HHH_b1_08228_af2_000000209_0001_42_55_H_._HHH_b2_05976_0001_0000200006_0000001_0_0001 (protein)
chain: DKAEEIVEEILRLVEEDSEEAREEVRRILEEVAKDAELSRRVLELAREDPRLQLAFYRAMRIAFS
B2: il2ra_site2_3nfp_normal_mot_HHH_b1_00660_af2_000000090_0001_40_57_H_._HHH_b1_06964_0001_0000100002_0000001_0_af2pred_0001_1_af2pred_swapped (protein)
chain: SSSSSEEEKQVEELLRRAEELLERGDPEEAREVVEEAALIAAELNNHELFALIIELLEKIDSSSS
B3: il2ra_site2_2erj_sap_21_mot_HHH_b1_05735_000000112_0001_20_37_H_._520760a1b3033c0d7e8c6ec61dbb0d93_0001_1_0001_0000200013_0000001_0_0001 (protein)
chain: SSSSSSDLEELAVEAVELANEGNPEEARKVVEEAIELAEEEGDEYALRYLELALEDIRSSSSSSS
B4: il2ra_site1_2b5i_normal_mot_f5ff40796168375b462bec8614a1db4a_0001_1_000000138_0001_53_65_H_._HHH_b2_06782_0001_0000300019_0000001_1_af2pred_0001_af2pred_1 (protein)
chain: SSSDFKEESAKELLKHAEELYKKGNPERARAVFFLALAAARRGGDEELLEEIRELLERLEKSSSS
B5: il2ra_site1_2b5i_normal_mot_HHH_b2_04910_000000118_0001_1_19_H_._HHH_b2_06462_af2_0001_0000100001_0000001_0_af2pred_0001_af2pred (protein)
chain: SSSSDKREALELLEEANKLAQNGNPEEAEKVAEEALRLAEEGGNKALAKSIRVAVRQLRLSSSSS
B6: il2ra_site1_2b5i_normal_mot_HHH_b2_04910_000000118_0001_1_19_H_._HHH_b1_03416_0001_0000100004_0000001_0_af2pred_dldesign_0_af2pred (protein)
chain: SSSDAALAREARELFLKANELKQAGKEEEALKLLEKARELAEAGGAPLLARMIDIAIENVKSSSS
B7: il2ra_site1_2b5i_sap_10_mot_HHH_b2_04633_000000016_0001_38_52_H_._HHH_b2_03268_af2_0001_0000100013_0000001_0_0001_af2pred_0001_af2pred_1 (protein)
chain: SSSSSSAERIARWAFELAEELVEEGDDEQVKLILEQMEELAELLGDPRIRELVEELQRRLSSSSS
B8: il2ra_site1_3nfp_normal_mot_86920ccf215a9397388743310839e631_0001_1_000000296_0001_18_34_H_._b29dd7dff93b1ac3f1fd774082f773f6_0001_0002_0000300020_0000001_0 (protein)
chain: SLEEELKRLVEEGDPEELKRILEELIREAEEKHDPRLAHEVLRLIAKLDRLGDPAAKLAYEIIAK
B9: il2ra_site2_3nfp_normal_mot_HHH_b2_08209_000000146_0001_1_18_H_._HHH_b1_00902_af2_0001_0000400038_0000001_0 (protein)
chain: SSSSSDEEEVERRVKELLEEAERVSEEEAREILKEATNLAYELRDFELFALIADLRSELASSSSS
B10: il2ra_site2_3nfp_sap_19_mot_HHH_b2_05281_000000198_0001_39_56_H_._b8f5d3c2707715a5215f600c9304175e_0001_1_0001_0000200006_0000001_0_0001 (protein)
chain: SSSSDEEVREEVEELLEQAKRIEDEEEVRELLARAVRIAWENNDEELFFEIAEVAFELMQSSSSS
B11: il2ra_site1_3nfp_sap_14_mot_HHH_b1_02075_af2_000000035_0001_1_18_H_._812af5c65f29141b25d3ed263bec1fb2_0001_1_af2_0001_0000200009_0000001_0_0001 (protein)
chain: SSSSDLEEEVEELQRELERAIEEGDFKLAEEIFRRLMELARENNDIEIAEEAYRLVHEHVKSSSS
B12: il2ra_site1_1z92_normal_mot_HHH_b1_03515_000000289_0001_1_19_H_._HHH_b2_07175_0001_0000100001_0000001_0 (protein)
chain: SSSSDRLERAAEIIVRVAVEANGLSEEQEKELEELARELVERGLDPLEIIKLLDRLAAELSSSSS
B13: il2ra_site1_3nfp_normal_mot_HHH_b1_04049_af2_000000244_0001_42_55_H_._HHH_b1_01786_0001_0000400012_0000001_0_af2pred_0001_af2pred (protein)
chain: SSSSDDKKRIQKLLREIMRLSKEGDEEEAEKLLEEVEELAREAGDPVAELLVELLKKILNSSSSS
B14: il2ra_site1_3nfp_sap_8_mot_ems_3hC_617_000000125_0001_25_41_H_._HHH_b1_04051_af2_0001_0000100005_0000001_0_0001_af2pred_0001_af2pred_1_swapped (protein)
chain: SSSSNEVSRRIDELLRRAAELAKQGDPEEAEKLLEEAQELAEEAGSPIAEKLVELVAKHLSSSSS
B15: il2ra_site2_3nfp_sap_15_mot_HHH_b1_03544_000000039_0001_44_57_H_._HHH_b2_05387_0001_0000300014_0000001_0_0001 (protein)
chain: SVEEVLRALKRSGDPRLEKLAEEVEELLRRGIPPEEIREELAREAAEERDHLVFIVASLLASLIA
B16: il2ra_site1_1z92_sap_17_mot_HHH_b1_06709_000000271_0001_41_56_H_._HHH_b2_07927_af2_0001_0000100002_0000001_0_0001_af2pred_0001_af2pred_1 (protein)
chain: SWKEFLAEQLRRKPPESVEKLLRKSKEAAKRAGTPPEEIREILEELAELAGDPEVEKIVEELIKP
B17: il2ra_site1_2b5i_normal_mot_HHH_b1_02271_000000068_0001_1_16_H_._HHH_b1_07377_0001_0000200018_0000001_0_af2pred_dldesign_0_af2pred (protein)
chain: SSSSDLEAEKERVVAEARALAKTDLRAALEALDEIYKKLADAGLDELADEVYDLALELLKSSSSS
B18: il2ra_site2_2erj_sap_23_mot_136a1b26558f6d63e39c8b7f62c9aa34_0001_af2_000000152_0001_1_15_H_._HHH_b2_07934_af2_0001_0000500021_0000001_0_0001 (protein)
chain: SSSSSEDFERLFELHREVAELKEEGNPEEAEELIREAEELAKEWGSEAFLRSLELLREQLESSSS

target: il2ra, P01589; test: yeast display titration

Apparent Kd, inactive:
B1 no binding seen
B2 no binding seen
B3 no binding seen
B4 no binding seen
B5 no binding seen
B6 no binding seen
B7 no binding seen
B8 no binding seen
B9 no binding seen
B10 no binding seen
B11 no binding seen
B12 no binding seen
B13 no binding seen
B14 no binding seen
B15 > 1.5 µM
B16 no binding seen
B17 no binding seen
B18 no binding seen

As a short view, part of the list above:
Apparent Kd, inactive:
B11 no binding seen
B12 no binding seen
B13 no binding seen
B14 no binding seen
B15 > 1.5 µM
